The data set deals with T1, GST-rCtrA (Ehrlichia chaffeensis).
T1 sequence (looked up): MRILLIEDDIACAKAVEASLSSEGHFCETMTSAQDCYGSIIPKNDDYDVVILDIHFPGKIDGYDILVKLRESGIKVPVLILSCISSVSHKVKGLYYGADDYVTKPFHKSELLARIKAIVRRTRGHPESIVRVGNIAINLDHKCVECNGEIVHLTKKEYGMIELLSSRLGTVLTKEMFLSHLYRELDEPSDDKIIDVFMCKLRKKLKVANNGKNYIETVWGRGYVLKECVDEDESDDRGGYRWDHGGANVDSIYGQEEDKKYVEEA
As to the kind of experiment: EMSA. Conditions: 2.5 uM protein, 50 ng DNA; EMSA: 10 mM Tris-HCl pH 7.5, 1 mM DTT, 20 ul, on ice 30 min; 8% native PAGE in 1x TBE, ethidium bromide stain; recombinant protein; residues 1-265; protein details: N-terminal GST (pET-41a(+)); probe letters rebuilt from the primers and the genome. (In general: In EMSA bound probe runs differently from free probe, usually more slowly.)

This is an account of results in publication PMC9005958.

Protein sequences can lack the tags named with them.

In the case of “GAACGTCTGGTTGGTCTGCTCAATGGTATGAGATGGTAGCAGAAGAAAATTATAAAATATGTCGTCCACGTCAGTTGTATACTGGTAATATTGCAGAATGTTAACATAATTTTGAATTATCATTGCTTATTGTTTTAATATTATTGATAATTATGCGCATATTAATTGTGGATTTGTATATGTATATCTTGTTAACCATAAAAATTATTTAGAAGTGTATATAATTAGAAATATGTGTTAATATATGAGGGTAATCTTAGGATATAAACATAGATATAAGTTAAAAATGAAGTTATATACTGTAGTTGTAATATTACGTTAAGTAAAAATTTTTTATGCTTAACTATGGATAATTATCTTAAAGTGTTGATGTCCTATGAGTTTACTCGCA (double strand) [gshA promoter]”, the binding result was “binds”. With “TCTTATAACCCTTACTTTATTGAATGAGAATAACAAAATTCTTAAGATATCGAAATATAAAAGATCATGACGTAAACAACATACTAGTTCATATGCTATCTTATATTAAGCATTCACAAAAAAGACCTTGATTCAGCAAACTAGCATAAAAAACTTGGAAGATATTAAACACAACATTTAAAACTTAAAGACATACTTATATTAAATGAAGAATTAATCACATATTACAATACAAAAGTACATTTTAAACATGTATTAATTATATGTCATACGTATGTAATTCACACATTTATTTATAGTCCTACAGTAATGTAAAATTACTTATTGTAAAAAACAGCGTATATAAAATTGAAGTAGATGATTAATCACGTAACTTGCTATCCTTTAATCTTACATAACTAATAACTTGTTTTACTTTTTTGACTTTTTGCGCTATTGATACAACCTTATCCAACTCCTC (double strand) [gshB promoter]” the entry was “binds”.
